From paper PMC2832672
These are yes or no findings as the source states them, for the method shown. Binding seen in cells or lysates may run through a third protein. Binding calls can cover weak binding; strength is not graded here.

Target: GST::PPS, GST fusion protein containing the C-terminal end of PPS (amino acids 1370-2016) (Drosophila)
Assay: pull-down; GST fusion proteins bound to glutathione sepharose beads, incubated with crude extracts of 3-8 hour embryos in NET buffer (150 mM NaCl, 50 mM Tris pH 7.5, 5 mM EDTA) with 0.5% NP-40; SNF detected by Western blot; only the target purified

binding: binds
B1: Sans-fille (SNF), endogenous in embryo extracts (protein, UniProt P43332 1-216)
chain: MEMLPNQTIYINNLNEKIKKEELKKSLYAIFSQFGQILDIVALKTLKMRGQAFVIFKEIGSASNALRTMQGFPFYDKPMQIAYSKSDSDIVAKIKGTFKERPKKVKPPKPAPGTDEKKDKKKKPSSAENSNPNAQTEQPPNQILFLTNLPEETNEMMLSMLFNQFPGFKEVRLVPNRHDIAFVEFTTELQSNAAKEALQGFKITPTHAMKITFAKK
